Measured values as given in patent publication US8466115B2, “Spirocyclic isoxazoline derivatives as antiparasitic agents” (Zoetis LLC, priority 2011, dated 2013).
Some entries share one result that the patent states for a list of compounds.

Experiments:
[1] = system: Flea (Ctenocephalides felis); assay: Flea (Ctenocephalides felis) Membrane Feed Assay-Adult; format: in vivo; details: adult fleas fed on treated citrated bovine blood for approximately 2 hours; knockdown and/or death at approximately 2 and 24 hours
[2] = system: Soft Tick (Ornithidorus turicata); assay: Soft Tick (Ornithidorus turicata) Blood Feed Assay; format: in vivo; details: nymph stage ticks fed on treated citrated bovine blood; paralysis and/or death at approximately 24, 48 and 72 hours

## CS(=O)(=O)CC(=O)N1CC2(C1)OCc1cc(C3=NOC(c4cc(Cl)cc(Br)c4)(C(F)(F)F)C3)ccc12 (centres unmarked) [Example 56, 1-(5′-(5-(3-bromo-5-chlorophenyl)-5-(trifluoromethyl)-4,5-dihydroisoxazol-3-yl)-3′H-spiro[azetidine-3,1′-isobenzofuran]-1-yl)-2-(methylsulfonyl)ethanone]
[1]
  lethal dose 80% (LD80): ≤ 1 µg/mL
[2]
  LD100: ≤ 0.01 µg/mL

## CS(=O)(=O)CC(=O)N1CC2(C1)OCc1cc(C3=NOC(c4cccc(C(F)(F)F)c4)(C(F)(F)F)C3)ccc12 (centres unmarked) [Example 60, 2-(methylsulfonyl)-1-(5′-(5-(trifluoromethyl)-5-(3-(trifluoromethyl)phenyl)-4,5-dihydroisoxazol-3-yl)-3′H-spiro[azetidine-3,1′-isobenzofuran]-1-yl)ethanone]
[1]
  lethal dose 80% (LD80): ≤ 1 µg/mL
[2]
  LD100: ≤ 0.03 µg/mL

## CS(=O)(=O)CC(=O)N1CC2(C1)OCc1cc(C3=NOC(c4ccc(F)c(Cl)c4)(C(F)(F)F)C3)ccc12 (centres unmarked) [Example 59, 1-(5′-(5-(3-chloro-4-fluorophenyl)-5-(trifluoromethyl)-4,5-dihydroisoxazol-3-yl)-3′H-spiro[azetidine-3,1′-isobenzofuran]-1-yl)-2-(methylsulfonyl)ethanone]
[1]
  lethal dose 80% (LD80): ≤ 1 µg/mL
[2]
  LD100: ≤ 0.01 µg/mL

## CS(=O)(=O)CC(=O)N1CC2(C1)OCc1cc(C3=NOC(c4cc(F)cc(Cl)c4)(C(F)(F)F)C3)ccc12 (centres unmarked) [Example 58, 1-(5′-(5-(3-chloro-5-fluorophenyl)-5-(trifluoromethyl)-4,5-dihydroisoxazol-3-yl)-3′H-spiro[azetidine-3,1′-isobenzofuran]-1-yl)-2-(methylsulfonyl)ethanone]
[1]
  lethal dose 80% (LD80): ≤ 1 µg/mL
[2]
  LD100: ≤ 0.01 µg/mL
